Test results published in patent US20190359693A1.
Results are given in words; binding and its absence hold for the method and conditions named. Some results given as binding are weak or reduced against the parent protein; the word gives no strength.

Sequences of proteins named here, by UniProt entry; tags and fusion partners are left off. Residues count along the entry.
UniProt P03460, residues 16-552: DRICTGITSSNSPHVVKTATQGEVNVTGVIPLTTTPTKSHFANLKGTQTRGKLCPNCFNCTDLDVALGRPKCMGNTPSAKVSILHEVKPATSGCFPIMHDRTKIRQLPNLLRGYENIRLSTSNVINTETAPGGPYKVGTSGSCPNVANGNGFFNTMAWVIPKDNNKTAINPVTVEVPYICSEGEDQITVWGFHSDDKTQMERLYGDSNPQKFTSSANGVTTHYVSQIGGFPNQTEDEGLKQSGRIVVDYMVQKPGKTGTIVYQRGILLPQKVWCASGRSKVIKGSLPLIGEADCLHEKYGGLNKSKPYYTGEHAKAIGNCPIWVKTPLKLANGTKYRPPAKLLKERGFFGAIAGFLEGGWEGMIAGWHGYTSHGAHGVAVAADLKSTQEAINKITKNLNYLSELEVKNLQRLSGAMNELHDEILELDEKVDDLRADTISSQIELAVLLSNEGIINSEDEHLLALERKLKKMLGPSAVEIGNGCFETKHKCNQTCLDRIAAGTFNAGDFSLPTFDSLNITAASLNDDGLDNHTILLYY

Tests used:
[1] = target: HA of B/Lee/40 (influenza B virus) (UniProt P03460); experiment: BLI (Octet)
[2] = target: HA of H3N2 A/HK/1/68 (influenza A virus) (UniProt Q91MA7); experiment: BLI (Octet)

Row | Binder | binding [1] | binding [2]
1 | SD1086 (VHH) VHH: EVQLVESGGGLVQAGGSLRLSCTASGSISSIDYMRWYRQYPGKHRELVATITSGGAADSRDSVKGRFTVSRGNAANTMYLQMNNLKPEDTAVYYCNAYGLEIGAHWGRGTQVTVSS | binds | 
2 | SD1046 (VHH) VHH: EVQLVESGGGLVQAGDSLRISCAASGRTLSIYSMGWFRQAPGKEREFVATIGWNSGRTFYPDSLKGRFTISRDNARNTLYLQMNNLRPEDTAVYYCAAAKGPLRLSSQADYWGQGTQVTVSS |  | binds
3 | SD1048 (VHH) VHH: EVQLVESGGGVVQPGGSLRLSCVASGRTSSMYSIGWFRQAPGKEREFVAVIGWYSGRTFYTDSMKGRFTISRDNARNTVYLQMNSLKPEDTAVYYCAAANGPLRLSNQADYWGQGTQVTVSS |  | binds
4 | SD1049 (VHH) VHH: EVQLVESGGGLVQAGGSLRLSCAASGRTLSLYSVGWFRQAPGKEREFVATIGWNSGRTFYVDSMKGRFTISRDNAKNTVYLQMNDLKVEDTAVYYCAAAKGPLRLSNQADYWGQGTQVTVSS |  | binds
